## Primary screen of a compound library

Measurements from “University of Dundee, Small-Polar-MMV Screening Library” (2021), ChEMBL document CHEMBL3988442.

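Cell assay of Leishmania donovani living inside macrophages; the read-out is not stated. Tested at 30 µM. Direction is inferred from retests: higher values go with stronger inhibition. Size under these conditions: about 69,000 compounds, about 1,000 of them at 50% or above in at least one test.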

Results are given as percent effect.
How 0% and 100% were set is not recorded. Most values in the screen are low, and negative values occur.
The compounds are a random part of those screened.
Two or more numbers in one place are separate tests of the same structure; such repeats can differ widely.

compound: CC(NC(=O)NCC(C)(C)C(N)=O)c1nc(-c2ccccc2)cs1 (stereo not shown)
effect: -6.347

compound: CCOc1ccc(NC(=O)Nc2cc(N3CCCCC3)ncn2)cc1
effect: 6.519 & 18.05

compound: Cn1cccc1C(=O)N1CCCC1c1ccc(CN2CCOCC2)cn1 (stereo not shown)
effect: 10.31

compound: Cn1cnc2cc(NC(=O)c3n[nH]c4c3CCC4)ccc21
effect: 13.81

compound: COC(=O)C(CNC(=O)Nc1cn[nH]c1)Cc1cccc(C)c1 (stereo not shown)
effect: 27.73

compound: CC1CN(c2ncnc3c2cnn3C)CCN1c1nccs1 (stereo not shown)
effect: -34.01

compound: CN(CC(C)(C)O)C1CCCN(Cc2noc(C3CC3)n2)C1 (stereo not shown)
effect: -41.53

compound: COCCC(=O)N1CCC2(CC1)CN(C(C)=O)Cc1ccccc1O2
effect: 31.57

compound: [H][C@]12CC[C@]([H])(CN(Cc3ccncc3)C1)N(C(=O)N1CCCC1)C2
effect: 3.711

compound: COc1cccc(-c2nc3c([nH]2)CCNC3)c1F
effect: 12.14

compound: Cc1nc(CN(C)C(=O)c2ccc(Cn3cnnn3)cc2)cs1
effect: -12.84

compound: O=C(O)C1(Oc2cccc(F)c2)CCN(c2ccncc2)CC1
effect: 3.892

compound: [H][C@@]12CS(=O)(=O)C[C@]1([H])N(Cc1nccn1C)CCN2Cc1ccccc1
effect: 14.23

compound: Cc1cnn(CCCn2c(C)cc(C(F)(F)F)cc2=O)c1
effect: -5.223

compound: CCOCCOCc1cccc(CNc2cncc(-n3cccn3)n2)c1
effect: 35.37

compound: CCc1nc(CN(C)CC2CCN(CCO)CC2)no1
effect: 9.991

compound: CC(C)C(=O)N1Cc2ccccc2CC2(CCCCN2C)C1 (stereo not shown)
effect: 11.68

compound: Cc1ccnc(N2CCCC(c3nncn3C3CC3)C2)n1 (stereo not shown)
effect: -6.923

compound: CC(=O)N(Cc1noc(C2CC2)n1)C1CCN(Cc2cc(C)on2)C1 (stereo not shown)
effect: 20.5

compound: COc1ccccc1[C@@H]1CN(Cc2nccn2C)C[C@H]1C(=O)O
effect: -2.97

compound: O=C(NCCNC(=O)C1CC1)c1sccc1Br
effect: 4.09

compound: O=S(=O)(CCc1ccccc1)Cc1nc(C2CC2)no1
effect: 3.619

compound: Cc1cccc2c1nc1n2[C@@H](CNC(=O)NC(C)C)COC1
effect: -6.408

compound: [H][C@@]12CN(Cc3ccc(-c4ccn[nH]4)s3)C[C@]1([H])[C@H]2C(=O)NC1CC1
effect: -9.103

compound: [H][C@@]12CN(C(=O)[C@H]3CCCO3)C[C@]1([H])C(=O)N(Cc1cccc(C)c1)C2
effect: 15.24

compound: Cc1cccc(NC(=O)c2ccc(OCc3nnnn3C)cc2)n1
effect: 30.14

compound: Cc1ccc(OCC2CCCN(Cc3ccc(CO)o3)C2)cc1 (stereo not shown)
effect: 35.8

compound: c1cnc(-c2nc(CN3CCCC3Cn3cncn3)cs2)nc1 (stereo not shown)
effect: 30.28

compound: CCCn1nc(C)c(C(=O)N(C)[C@@H]2CC[C@@H](OC)[C@@H]2O)c1C
effect: 19.04

compound: Cc1ccc2nc(CN3CCN(C4CCCC4)C(=O)C3)cc(O)c2c1
effect: 0.3859

compound: COCCN1C(=O)CCC12CCCN(C(=O)CC1CC1)CC2 (stereo not shown)
effect: 11.21

compound: CS(=O)(=O)CCC(=O)NC(c1ccc(F)cc1)C(F)(F)F (stereo not shown)
effect: 25.11

compound: COC(C)c1noc(CN(C)c2ncccn2)n1 (stereo not shown)
effect: 19.66

compound: CCOCC1CN(Cc2ccco2)Cc2ccnn2C1 (stereo not shown)
effect: -14.7

compound: CCCc1cc(CNC2CCN(c3nc4ccccc4s3)CC2)on1
effect: 35.92

The last 2 entries again:

| compound | effect |
|---|---|
| `CCOCC1CN(Cc2ccco2)Cc2ccnn2C1` (stereo not shown) | -14.7 |
| `CCCc1cc(CNC2CCN(c3nc4ccccc4s3)CC2)on1` | 35.92 |